The other results are listed elsewhere or left out.
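Note: competitive chemoproteomic profiling in live THP-1 cells with an iodoacetamide desthiobiotin (IA-DTB) probe, comparing probe-labelled peptide intensities in compound-treated cells against DMSO-treated controls.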

By UniProt entry, the sequences of proteins in these tests, tags left out. Where a name states a change or a piece, a line headed by the entry shows the natural chain unless it says otherwise.
UniProt Q9HB58: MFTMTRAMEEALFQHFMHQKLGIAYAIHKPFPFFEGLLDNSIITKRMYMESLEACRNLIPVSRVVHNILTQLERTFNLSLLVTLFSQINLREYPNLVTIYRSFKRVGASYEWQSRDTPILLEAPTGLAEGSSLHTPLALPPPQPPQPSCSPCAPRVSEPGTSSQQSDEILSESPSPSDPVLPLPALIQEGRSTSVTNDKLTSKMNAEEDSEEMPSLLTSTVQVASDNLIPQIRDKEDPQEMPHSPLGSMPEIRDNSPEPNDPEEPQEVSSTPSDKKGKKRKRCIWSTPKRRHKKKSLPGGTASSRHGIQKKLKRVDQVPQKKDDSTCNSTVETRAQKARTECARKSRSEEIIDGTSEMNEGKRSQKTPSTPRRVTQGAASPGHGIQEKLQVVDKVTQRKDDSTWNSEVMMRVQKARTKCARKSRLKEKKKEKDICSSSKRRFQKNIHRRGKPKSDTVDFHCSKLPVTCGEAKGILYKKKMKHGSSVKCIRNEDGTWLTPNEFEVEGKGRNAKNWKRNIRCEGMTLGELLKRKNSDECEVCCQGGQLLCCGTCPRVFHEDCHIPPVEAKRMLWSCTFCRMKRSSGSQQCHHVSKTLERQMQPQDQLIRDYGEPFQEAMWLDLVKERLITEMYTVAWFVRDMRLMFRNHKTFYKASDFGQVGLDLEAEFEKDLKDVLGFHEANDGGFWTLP
UniProt P08047, whole entry, looked up: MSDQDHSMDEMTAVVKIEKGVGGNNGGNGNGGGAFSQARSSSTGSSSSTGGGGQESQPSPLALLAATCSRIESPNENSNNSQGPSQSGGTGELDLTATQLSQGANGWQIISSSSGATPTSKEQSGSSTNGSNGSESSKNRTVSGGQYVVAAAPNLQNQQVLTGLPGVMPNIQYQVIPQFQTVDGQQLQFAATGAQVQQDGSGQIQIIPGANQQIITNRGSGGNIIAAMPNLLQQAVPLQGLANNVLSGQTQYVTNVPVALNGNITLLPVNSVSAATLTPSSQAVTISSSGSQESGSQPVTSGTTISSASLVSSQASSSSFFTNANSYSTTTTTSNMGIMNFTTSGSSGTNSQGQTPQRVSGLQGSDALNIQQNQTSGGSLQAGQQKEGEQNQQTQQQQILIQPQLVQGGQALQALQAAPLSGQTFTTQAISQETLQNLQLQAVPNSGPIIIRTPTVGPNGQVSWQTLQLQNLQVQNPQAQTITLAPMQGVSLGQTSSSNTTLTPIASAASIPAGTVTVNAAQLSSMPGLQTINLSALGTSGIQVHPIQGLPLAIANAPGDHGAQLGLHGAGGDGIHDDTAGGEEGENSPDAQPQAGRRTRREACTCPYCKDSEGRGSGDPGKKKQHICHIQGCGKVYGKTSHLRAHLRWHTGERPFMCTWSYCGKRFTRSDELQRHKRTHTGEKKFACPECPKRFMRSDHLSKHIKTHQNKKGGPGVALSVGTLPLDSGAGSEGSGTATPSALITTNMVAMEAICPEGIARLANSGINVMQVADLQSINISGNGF
UniProt O60271: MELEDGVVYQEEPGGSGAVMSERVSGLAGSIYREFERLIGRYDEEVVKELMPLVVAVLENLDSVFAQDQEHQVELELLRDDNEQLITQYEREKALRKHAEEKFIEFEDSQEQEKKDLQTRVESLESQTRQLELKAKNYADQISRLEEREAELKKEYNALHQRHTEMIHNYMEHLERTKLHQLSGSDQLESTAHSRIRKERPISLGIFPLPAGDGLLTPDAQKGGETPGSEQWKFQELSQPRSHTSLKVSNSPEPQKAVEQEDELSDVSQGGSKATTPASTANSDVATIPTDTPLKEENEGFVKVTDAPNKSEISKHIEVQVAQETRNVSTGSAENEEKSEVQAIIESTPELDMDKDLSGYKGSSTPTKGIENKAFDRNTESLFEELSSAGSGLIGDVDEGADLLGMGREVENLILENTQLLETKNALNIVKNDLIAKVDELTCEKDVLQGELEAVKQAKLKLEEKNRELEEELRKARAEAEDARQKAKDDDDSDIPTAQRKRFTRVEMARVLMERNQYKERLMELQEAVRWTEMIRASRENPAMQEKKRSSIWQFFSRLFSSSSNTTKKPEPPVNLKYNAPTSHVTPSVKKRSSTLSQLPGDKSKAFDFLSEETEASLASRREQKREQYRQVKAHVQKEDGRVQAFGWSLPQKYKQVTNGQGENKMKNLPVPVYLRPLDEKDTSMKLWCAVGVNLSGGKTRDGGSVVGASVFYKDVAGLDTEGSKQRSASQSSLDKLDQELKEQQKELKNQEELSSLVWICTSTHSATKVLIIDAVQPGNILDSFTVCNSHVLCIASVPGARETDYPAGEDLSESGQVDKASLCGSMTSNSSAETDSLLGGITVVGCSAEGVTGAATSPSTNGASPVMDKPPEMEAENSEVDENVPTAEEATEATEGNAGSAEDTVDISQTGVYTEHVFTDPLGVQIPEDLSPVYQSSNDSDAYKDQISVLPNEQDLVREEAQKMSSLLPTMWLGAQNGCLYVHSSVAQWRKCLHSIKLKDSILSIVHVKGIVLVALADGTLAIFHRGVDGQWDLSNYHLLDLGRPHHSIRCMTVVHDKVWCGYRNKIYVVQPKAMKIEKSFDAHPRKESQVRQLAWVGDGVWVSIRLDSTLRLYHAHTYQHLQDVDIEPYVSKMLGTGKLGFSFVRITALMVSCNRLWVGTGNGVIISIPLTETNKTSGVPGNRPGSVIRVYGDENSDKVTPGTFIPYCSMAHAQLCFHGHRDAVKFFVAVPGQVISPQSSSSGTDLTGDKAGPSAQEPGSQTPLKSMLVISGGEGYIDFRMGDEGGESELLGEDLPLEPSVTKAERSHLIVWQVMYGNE
UniProt P55769: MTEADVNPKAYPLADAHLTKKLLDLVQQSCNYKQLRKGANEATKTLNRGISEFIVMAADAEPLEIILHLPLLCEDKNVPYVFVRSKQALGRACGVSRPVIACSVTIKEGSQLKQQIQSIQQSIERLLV
UniProt Q9BUA3: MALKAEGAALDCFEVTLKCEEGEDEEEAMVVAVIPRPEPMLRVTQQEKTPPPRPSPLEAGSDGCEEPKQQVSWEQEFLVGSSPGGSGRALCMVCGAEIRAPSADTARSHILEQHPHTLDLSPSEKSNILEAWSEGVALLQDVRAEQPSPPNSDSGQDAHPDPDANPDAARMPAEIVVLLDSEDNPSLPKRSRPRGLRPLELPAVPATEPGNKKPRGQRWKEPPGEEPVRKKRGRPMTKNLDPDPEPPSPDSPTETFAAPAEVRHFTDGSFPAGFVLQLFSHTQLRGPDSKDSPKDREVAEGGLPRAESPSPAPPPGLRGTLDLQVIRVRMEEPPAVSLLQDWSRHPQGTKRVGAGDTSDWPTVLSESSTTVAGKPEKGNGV
UniProt Q9UHB9: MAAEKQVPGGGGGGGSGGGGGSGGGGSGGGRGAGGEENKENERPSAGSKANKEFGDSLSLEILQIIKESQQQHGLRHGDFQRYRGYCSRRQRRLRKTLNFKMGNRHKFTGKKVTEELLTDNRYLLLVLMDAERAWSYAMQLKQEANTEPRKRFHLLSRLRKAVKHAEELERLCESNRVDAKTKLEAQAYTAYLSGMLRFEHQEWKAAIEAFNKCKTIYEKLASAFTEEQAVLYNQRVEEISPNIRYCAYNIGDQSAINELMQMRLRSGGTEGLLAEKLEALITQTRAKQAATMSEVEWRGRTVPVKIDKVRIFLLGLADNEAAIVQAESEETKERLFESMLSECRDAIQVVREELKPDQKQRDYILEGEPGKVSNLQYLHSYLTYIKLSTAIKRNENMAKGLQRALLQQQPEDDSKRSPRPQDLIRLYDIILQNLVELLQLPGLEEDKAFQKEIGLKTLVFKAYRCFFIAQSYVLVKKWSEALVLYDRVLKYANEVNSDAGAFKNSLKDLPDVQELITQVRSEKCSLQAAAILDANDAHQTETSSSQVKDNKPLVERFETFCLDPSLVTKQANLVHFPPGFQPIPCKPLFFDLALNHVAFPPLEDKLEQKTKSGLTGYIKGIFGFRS
UniProt Q8N5C6: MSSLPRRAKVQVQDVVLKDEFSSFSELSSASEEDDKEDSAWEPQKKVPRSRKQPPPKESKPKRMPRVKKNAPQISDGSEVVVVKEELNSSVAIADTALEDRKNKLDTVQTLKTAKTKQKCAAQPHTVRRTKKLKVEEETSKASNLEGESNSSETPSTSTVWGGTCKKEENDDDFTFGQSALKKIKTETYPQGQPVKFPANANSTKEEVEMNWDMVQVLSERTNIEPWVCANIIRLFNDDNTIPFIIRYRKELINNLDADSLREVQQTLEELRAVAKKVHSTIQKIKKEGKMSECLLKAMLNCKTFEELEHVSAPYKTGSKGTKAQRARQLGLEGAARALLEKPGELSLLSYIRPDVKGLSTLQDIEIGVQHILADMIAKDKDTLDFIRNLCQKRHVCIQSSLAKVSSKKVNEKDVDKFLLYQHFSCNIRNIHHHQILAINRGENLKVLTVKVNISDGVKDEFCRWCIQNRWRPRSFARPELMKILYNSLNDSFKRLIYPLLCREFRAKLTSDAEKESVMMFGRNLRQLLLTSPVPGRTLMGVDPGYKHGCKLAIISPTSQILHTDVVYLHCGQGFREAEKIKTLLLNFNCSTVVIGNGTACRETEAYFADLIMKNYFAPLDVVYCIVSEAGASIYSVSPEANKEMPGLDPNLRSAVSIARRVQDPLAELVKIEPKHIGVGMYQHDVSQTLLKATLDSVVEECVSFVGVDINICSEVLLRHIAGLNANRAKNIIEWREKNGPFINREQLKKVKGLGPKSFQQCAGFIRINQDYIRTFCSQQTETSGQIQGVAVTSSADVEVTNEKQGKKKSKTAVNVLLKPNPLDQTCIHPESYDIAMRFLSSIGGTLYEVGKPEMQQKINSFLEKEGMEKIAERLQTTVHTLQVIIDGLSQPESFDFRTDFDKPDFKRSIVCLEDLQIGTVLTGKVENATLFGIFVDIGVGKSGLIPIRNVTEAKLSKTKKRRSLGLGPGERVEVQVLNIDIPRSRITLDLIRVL
UniProt Q8TCT8: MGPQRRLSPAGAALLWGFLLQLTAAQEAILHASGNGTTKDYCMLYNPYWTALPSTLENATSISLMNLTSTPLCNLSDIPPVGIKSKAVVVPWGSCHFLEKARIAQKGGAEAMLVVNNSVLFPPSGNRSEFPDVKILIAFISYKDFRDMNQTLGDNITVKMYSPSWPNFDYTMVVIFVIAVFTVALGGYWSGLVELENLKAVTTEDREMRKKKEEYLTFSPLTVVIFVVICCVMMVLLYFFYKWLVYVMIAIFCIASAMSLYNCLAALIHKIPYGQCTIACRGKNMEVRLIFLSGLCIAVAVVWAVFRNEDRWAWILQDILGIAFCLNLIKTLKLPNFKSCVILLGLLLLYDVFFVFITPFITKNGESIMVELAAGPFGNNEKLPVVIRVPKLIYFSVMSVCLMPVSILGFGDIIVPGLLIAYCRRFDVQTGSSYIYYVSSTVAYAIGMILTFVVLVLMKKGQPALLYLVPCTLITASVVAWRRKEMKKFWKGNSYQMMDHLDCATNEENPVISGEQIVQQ
UniProt Q00796: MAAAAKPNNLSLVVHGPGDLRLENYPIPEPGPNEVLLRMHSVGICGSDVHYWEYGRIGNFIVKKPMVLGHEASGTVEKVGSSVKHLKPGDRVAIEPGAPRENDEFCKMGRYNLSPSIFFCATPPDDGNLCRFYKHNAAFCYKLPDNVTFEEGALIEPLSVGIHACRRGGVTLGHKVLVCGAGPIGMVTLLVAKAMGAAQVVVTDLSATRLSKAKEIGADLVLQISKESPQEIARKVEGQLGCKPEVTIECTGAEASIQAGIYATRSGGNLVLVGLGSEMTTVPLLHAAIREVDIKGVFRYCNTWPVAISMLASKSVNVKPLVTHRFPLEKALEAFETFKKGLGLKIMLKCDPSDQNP
UniProt Q8TB22: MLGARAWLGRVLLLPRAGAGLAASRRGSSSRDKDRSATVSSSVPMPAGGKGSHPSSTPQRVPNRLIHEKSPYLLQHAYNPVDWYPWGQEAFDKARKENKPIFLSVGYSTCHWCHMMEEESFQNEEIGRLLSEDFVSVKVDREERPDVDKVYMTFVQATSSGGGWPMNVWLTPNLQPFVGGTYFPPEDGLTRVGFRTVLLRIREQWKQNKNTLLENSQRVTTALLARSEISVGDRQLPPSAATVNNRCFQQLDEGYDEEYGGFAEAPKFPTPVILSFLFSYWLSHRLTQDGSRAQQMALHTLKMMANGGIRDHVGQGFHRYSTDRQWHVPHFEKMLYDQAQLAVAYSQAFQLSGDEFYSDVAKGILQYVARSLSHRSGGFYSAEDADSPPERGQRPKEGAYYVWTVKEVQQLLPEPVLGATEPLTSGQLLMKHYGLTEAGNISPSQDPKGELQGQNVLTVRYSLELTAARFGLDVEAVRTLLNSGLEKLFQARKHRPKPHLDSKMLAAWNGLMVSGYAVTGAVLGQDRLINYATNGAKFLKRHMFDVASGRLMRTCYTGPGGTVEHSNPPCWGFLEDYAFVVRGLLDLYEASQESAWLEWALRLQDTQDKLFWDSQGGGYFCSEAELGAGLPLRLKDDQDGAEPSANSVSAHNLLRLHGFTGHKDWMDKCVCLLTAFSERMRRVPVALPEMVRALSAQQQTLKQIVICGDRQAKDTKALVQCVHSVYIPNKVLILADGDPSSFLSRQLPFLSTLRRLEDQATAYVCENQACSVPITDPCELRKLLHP

Compound in this experiment: CC1Cc2ccccc2N1C(=O)C1CCCN(C1)C(=O)CCl (mixture of isomers) [TRIM25 ligand 11 (diastereomer mixture)]
The experiment is described as follows: probe-labelled cysteine peptide fold change vs DMSO (competition) (log2 fold change); higher = less target engagement (more negative = stronger competition). Particulars: 50 µM; THP-1; incubation time: 4 h.
Regarding “SP110_Q9HB58_327_DDSTCNSTVETR (UniProt Q9HB58)”, the “probe-labelled cysteine peptide fold change” value is -0.106. As for “SP1_P08047_633_KQHICHIQGCGK (UniProt P08047)”, the “probe-labelled cysteine peptide fold change” value was -0.216.

As for “SNRNP70_P08621_39_HHNQPYCGIAPYIR (UniProt P08621)”, the “probe-labelled cysteine peptide fold change” value is -0.228.

“SRD5A3_Q9H8P0_238_AGVVIHCNHR (UniProt Q9H8P0)”: the “probe-labelled cysteine peptide fold change” value is -0.036. As for “SNX14_Q9Y5W7_593_IPVFCIDVER (UniProt Q9Y5W7)”, the figure is 0.776; as for “SPTAN1_Q13813_2233_TYLLDGSCMVEESGTLESQLEATK (UniProt Q13813)”, -0.263; as for “SPECC1_Q5M775_598_DLLELSCNELR (UniProt Q5M775)”, 0.151. In the case of “SNRPD2_P62316_63_HCNMVLENVK (UniProt P62316)”, the “probe-labelled cysteine peptide fold change” value is -0.0606.

As to “SPAG9_O60271_1210_VTPGTFIPYCSMAHAQLCFHGHR (UniProt O60271)”, the “probe-labelled cysteine peptide fold change” value came to 0.532. In the case of “SNU13_P55769_102_ACGVSRPVIACSVTIK (UniProt P55769)”, the “probe-labelled cysteine peptide fold change” value came to 0.0527. With “SPTLC1_O15269_255_FIVVEGLYMNTGTICPLPELVK (UniProt O15269)”, the “probe-labelled cysteine peptide fold change” value was -0.0323. “SPINDOC_Q9BUA3_12_AEGAALDCFEVTLK (UniProt Q9BUA3)”: the “probe-labelled cysteine peptide fold change” value was -0.282. On to “SRP68_Q9UHB9_173_LCESNR (UniProt Q9UHB9)”, for which the “probe-labelled cysteine peptide fold change” value was 0.559.

Turning to “SQOR_Q9Y6N5_127_NCIHTDDDEK (UniProt Q9Y6N5)”, the “probe-labelled cysteine peptide fold change” value is -0.0231. In the case of SNRPC_P09234_25_THCSGR (UniProt P09234), the “probe-labelled cysteine peptide fold change” value turned out to be 0.157. Consider “SNX27_Q96L92_432+434_TCEGYNEIIFPHCACDSR (UniProt Q96L92)”, for which the “probe-labelled cysteine peptide fold change” value turned out to be 0.695. On to “SPATA5_Q8NB90_574_VLCNEAGLCALRR (UniProt Q8NB90)”, for which the “probe-labelled cysteine peptide fold change” value is -0.0738. As for “SPAG9_O60271_689_LWCAVGVNLSGGK (UniProt O60271)”, the “probe-labelled cysteine peptide fold change” value is -0.00744. Take “SOD1_P00441_112_HVGDLGNVTADKDGVADVSIEDSVISLSGDHCIIGR (UniProt P00441)”: the “probe-labelled cysteine peptide fold change” value was -0.19. On to “SNX20_Q7Z614_155_HLTGNFAEEMICER (UniProt Q7Z614)”, for which the “probe-labelled cysteine peptide fold change” value is -0.125.

Regarding “SQSTM1_Q13501_113_DHRPPCAQEAPR (UniProt Q13501)”, the “probe-labelled cysteine peptide fold change” value is -0.0823.

SNX9_Q9Y5X1_399_CEAVGK (UniProt Q9Y5X1): the “probe-labelled cysteine peptide fold change” value was -0.0622. Take “SRBD1_Q8N5C6_397_HVCIQSSLAK (UniProt Q8N5C6)”: the “probe-labelled cysteine peptide fold change” value turned out to be 0.0956.

“SP100_P23497_373_EGQEATCSRPQIVPEPMDFR (UniProt P23497)”: the “probe-labelled cysteine peptide fold change” value was -0.296. Consider “SNX3_O60493_140_CLHMFLQDEIIDKSYTPSKIRHA (UniProt O60493)”, for which the “probe-labelled cysteine peptide fold change” value was -0.0257. In the case of “SORL1_Q92673_752_LEGELVPCPLAEENEFILYAVR (UniProt Q92673)”, the “probe-labelled cysteine peptide fold change” value is -0.028. On to “SRBD1_Q8N5C6_165_ASNLEGESNSSETPSTSTVWGGTCK (UniProt Q8N5C6)”, for which the “probe-labelled cysteine peptide fold change” value is -0.158.

“SRI_P30626_75_CLTQSGIAGGYKPFNLETCR (UniProt P30626)”: the “probe-labelled cysteine peptide fold change” value is -0.0761. Take “SPPL2A_Q8TCT8_95_AVVVPWGSCHFLEK (UniProt Q8TCT8)”: the “probe-labelled cysteine peptide fold change” value was -0.217.

“SRP68_Q9UHB9_562_FETFCLDPSLVTK (UniProt Q9UHB9)”: the “probe-labelled cysteine peptide fold change” value is -0.146. As for “SORD_Q00796_106_ENDEFCK (UniProt Q00796)”, the “probe-labelled cysteine peptide fold change” value is -0.0179.

Consider “SPG11_Q96JI7_1890_LLDDGCVHEASR (UniProt Q96JI7)”, for which the “probe-labelled cysteine peptide fold change” value was -0.169. Regarding “SNU13_P55769_30_LLDLVQQSCNYK (UniProt P55769)”, the “probe-labelled cysteine peptide fold change” value was -0.0737. With “SRP68_Q9UHB9_87_YRGYCSR (UniProt Q9UHB9)”, the “probe-labelled cysteine peptide fold change” value was -0.139.

In the case of “SPATA20_Q8TB22_721_ALVQCVHSVYIPNK (UniProt Q8TB22)”, the “probe-labelled cysteine peptide fold change” value came to 0.047. Consider “SRP72_O76094_128_YDECLAVYR (UniProt O76094)”, for which the “probe-labelled cysteine peptide fold change” value was found to be 0.151.

For the origin of these results see the supplement of paper PMC12067093, “Discovery and optimisation of a covalent ligand for TRIM25 and its application to targeted protein ubiquitination” (Chemical Science, 2025).
